Experimental data from publication PMC11920766.
No constants are given. Whether binding was seen depends on the method and setting. In cells and extracts the contact can be indirect. Some entries that bind do so weakly or less than the wild type.

Sequences of proteins named here, by UniProt entry; tags and fusion partners are left off. A change or cut given only in a name is not applied to a line headed by its entry. Residues count along the entry.
UniProt Q14974: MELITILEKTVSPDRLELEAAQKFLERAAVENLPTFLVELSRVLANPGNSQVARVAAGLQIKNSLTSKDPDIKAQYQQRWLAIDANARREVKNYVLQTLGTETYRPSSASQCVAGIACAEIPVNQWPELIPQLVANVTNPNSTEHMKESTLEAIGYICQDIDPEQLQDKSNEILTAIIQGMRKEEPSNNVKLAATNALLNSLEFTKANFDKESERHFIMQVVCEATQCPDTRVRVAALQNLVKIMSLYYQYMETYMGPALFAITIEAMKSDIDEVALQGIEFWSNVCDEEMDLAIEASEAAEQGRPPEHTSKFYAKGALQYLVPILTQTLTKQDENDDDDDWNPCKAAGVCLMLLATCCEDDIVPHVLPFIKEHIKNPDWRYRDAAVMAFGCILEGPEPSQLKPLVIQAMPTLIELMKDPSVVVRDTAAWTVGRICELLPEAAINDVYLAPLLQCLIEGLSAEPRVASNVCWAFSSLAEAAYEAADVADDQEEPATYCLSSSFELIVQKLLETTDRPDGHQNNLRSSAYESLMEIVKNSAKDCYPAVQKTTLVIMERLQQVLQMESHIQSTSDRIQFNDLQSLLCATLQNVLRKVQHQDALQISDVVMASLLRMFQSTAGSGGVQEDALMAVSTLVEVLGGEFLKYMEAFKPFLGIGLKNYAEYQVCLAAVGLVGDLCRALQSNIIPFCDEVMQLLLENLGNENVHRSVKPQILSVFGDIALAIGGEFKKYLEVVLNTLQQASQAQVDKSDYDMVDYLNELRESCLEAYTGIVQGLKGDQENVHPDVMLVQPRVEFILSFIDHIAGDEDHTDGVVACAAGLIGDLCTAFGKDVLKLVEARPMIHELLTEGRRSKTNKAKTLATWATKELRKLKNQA
UniProt Q9NZQ7, residues 19-290: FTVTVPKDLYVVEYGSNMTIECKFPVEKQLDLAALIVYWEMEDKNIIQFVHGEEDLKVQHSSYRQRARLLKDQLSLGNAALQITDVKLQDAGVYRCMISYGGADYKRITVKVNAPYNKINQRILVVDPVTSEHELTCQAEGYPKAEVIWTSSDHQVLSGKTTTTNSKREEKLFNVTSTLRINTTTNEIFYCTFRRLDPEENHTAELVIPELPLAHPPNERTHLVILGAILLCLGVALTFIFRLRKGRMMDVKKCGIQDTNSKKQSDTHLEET

Target: KPNB1 (human (endogenous in PC9R and A549R)) (UniProt Q14974)
Experiment: co-IP; Pierce Classic Magnetic IP/Co-IP kit; PC9R and A549R cell lysates incubated overnight at 4°C with anti-KPNB1, anti-PD-L1 or anti-IgG (negative control), protein A/G magnetic beads; KPNB1 and PD-L1 detected by western blot

binding: binds
Substance: PD-L1 (from UniProt Q9NZQ7 19-290)
